Measured values: paper PMC10378179
Results are given in words; binding and its absence hold for the method and conditions named. For part of these data: In cells and extracts the contact can be indirect. Some entries that bind do so weakly or less than the wild type. Tags and fused reporters may be left off the sequences shown. Blank lines part the entries; values can stand above or below the binder they belong to.

The chains behind the UniProt entries cited, without tags or fusion partners.
UniProt P32121: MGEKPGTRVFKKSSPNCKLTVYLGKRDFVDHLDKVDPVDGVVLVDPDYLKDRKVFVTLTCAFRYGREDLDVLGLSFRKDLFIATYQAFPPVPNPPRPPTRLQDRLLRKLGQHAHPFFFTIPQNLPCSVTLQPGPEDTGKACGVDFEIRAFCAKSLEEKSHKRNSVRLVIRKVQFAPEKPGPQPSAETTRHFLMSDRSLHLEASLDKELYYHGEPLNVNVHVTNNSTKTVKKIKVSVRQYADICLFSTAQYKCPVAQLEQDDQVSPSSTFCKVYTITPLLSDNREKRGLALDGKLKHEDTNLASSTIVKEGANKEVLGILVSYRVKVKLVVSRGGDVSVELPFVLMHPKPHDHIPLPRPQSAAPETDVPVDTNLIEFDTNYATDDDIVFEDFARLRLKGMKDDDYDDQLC

Assays:
ARRB2-HA full length [1] = target: ARRB2-HA full length (UniProt P32121); experiment: co-IP; C4-2B cells coexpressing ARRB2-HA and Myc-AURKA; anti-HA IP; Western blot
ARRB2-HA full length [2] = target: ARRB2-HA full length (UniProt P32121); experiment: co-IP; 293T cells cotransfected with ARRB2-HA (full length, NTD or CTD) and Myc-AURKA (full length, regulatory or kinase domain), with or without CXCR7 overexpression; anti-HA IP; 50 mM Tris-HCl pH 7.4, 150 mM NaCl, 1 mM EDTA, 1% Triton X-100; overnight at 4°C; Western blot
GST-ARRB2 full length = GST-ARRB2 full length (UniProt P32121); experiment: pull-down; 1 μg GST-tagged ARRB2 protein incubated 2 hours at 4°C with 1 μg Flag-AURKA in 25 mM Tris-HCl pH 7.5, 1% Triton X-100, 150 mM NaCl, 1 mM MgCl2, 1 mM EDTA; separated by GSH-Sepharose; immunoblot; both purified

- binding (ARRB2-HA full length [1]): binds
- binding (ARRB2-HA full length [2]): binds
B1: Myc-AURKA full length (enzyme, UniProt O14965 1-403)
chain: MDRSKENCISGPVKATAPVGGPKRVLVTQQFPCQNPLPVNSGQAQRVLCPSNSSQRIPLQAQKLVSSHKPVQNQKQKQLQATSVPHPVSRPLNNTQKSKQPLPSAPENNPEEELASKQKNEESKKRQWALEDFEIGRPLGKGKFGNVYLAREKQSKFILALKVLFKAQLEKAGVEHQLRREVEIQSHLRHPNILRLYGYFHDATRVYLILEYAPLGTVYRELQKLSKFDEQRTATYITELANALSYCHSKRVIHRDIKPENLLLGSAGELKIADFGWSVHAPSSRRTTLCGTLDYLPPEMIEGRMHDEKVDLWSLGVLCYEFLVGKPPFEANTYQETYKRISRVEFTFPDFVTEGARDLISRLLKHNPSQRPMLREVLEHPWITANSSKPSNCQNKESASKQS

- binding (GST-ARRB2 full length): binds
B2: FLAG-AURKA protein (enzyme, UniProt O14965 1-403)
chain: B1 chain
